Data: PubChem BioAssay AID330 (DTP/NCI, 2004)
The list shows only some results of the screen, not a fair sample: it gathers tests that were run many times, whatever their T/C, doses with no T/C, and many T/C values between a quarter and a half above the control. Other doses and runs of a compound stand elsewhere. T/C gives the treated animals as a percentage of the vehicle group. Some doses have a count of surviving animals in place of a T/C: the source files T/C as zero there, which appears to mark a toxic dose or a test without result, not a measured value. Counts of survivors are from the toxicity check (mostly the fifth day) where no day follows; animals may have died later. Schedule codes are those of the source, read here as Q, the interval in days (D) or hours (H), X, the number of doses. Some entries hold several experiments; the results are listed from low to high. Some doses without a T/C left all or most animals alive at the check, yet need not have been tolerated: survival well below the control is almost never listed, so the zero probably covers shortened survival too. Where survival is the endpoint, this PubChem deposit counts one and a half times the control or more as active, and values a quarter to a half above the control carry no call in these data; other NCI protocols may use other cut-offs. Some T/C values carry the count of animals alive at the toxicity check (mostly the fifth day); without a count, all were alive then.

Tested on: P388 leukemia ip, CD2F1 mice, survival T/C
Assay: NCI In Vivo Anticancer Drug Screen. Data for tumor model P388 Leukemia (intraperitoneal) in CD2F1 (CDF1) mice
Details: T/C endpoint: median survival time, higher T/C = longer survival
[1] = dose: 4.0 mg/kg/injection, schedule: Q01DX005 (ip), vehicle: saline + alcohol

COC(=O)[C@@]12OC[C@]34[C@H]([C@@H](O)[C@@H]1O)[C@@]1(C)CC(=O)C(O)=C(C)[C@@H]1C[C@H]3OC(=O)[C@H](OC(=O)/C=C(\C)C(C)C)[C@@H]24
survivor count (dose: 2.0 mg/kg/injection, schedule: Q01DX005 (ip), vehicle: saline + alcohol): 1 of 6, 2 of 6, 2 of 5, 3 of 5
survivor count (dose: 2.0 mg/kg/injection, schedule: Q01DX005 (ip), vehicle: water): 0 of 5 and 2 of 6
survivor count (dose: 2.0 mg/kg/injection, schedule: Q01DX009 (ip), vehicle: distilled water + Tween-80): 2 of 6
T/C (dose: 2.0 mg/kg/injection, schedule: Q01DX009 (ip), vehicle: saline + alcohol, evaluated on day 30): 161, 162, 163, 166, 169 % of control
T/C (dose: 2.0 mg/kg/injection, schedule: Q01DX009 (ip), vehicle: saline + alcohol, evaluated on day 60): 153 % of control [7 of 10 alive]
survivor count (dose: 2.0 mg/kg/injection, schedule: Q01DX009 (ip), vehicle: saline + alcohol): 0 of 6, 1 of 5, 2 of 6, 3 of 6, 4 of 6, 6 of 6
survivor count (dose: 2.0 mg/kg/injection, schedule: Q01DX009 (sc), vehicle: saline + alcohol): 5 of 10
survivor count (dose: 2.0 mg/kg/injection, schedule: Q03HX008 (ip), vehicle: saline + alcohol): 0 of 10
survivor count (dose: 2.0 mg/kg/injection, schedule: Q03HX016 (ip), vehicle: saline + alcohol): 0 of 10
T/C (dose: 2.0 mg/kg/injection, schedule: Q04DX003 (ip), vehicle: saline + alcohol): 138 % of control
survivor count (dose: 3.0 mg/kg/injection, schedule: Q01DX009 (ip), vehicle: saline + Tween-80 + alcohol): 0 of 6
survivor count (dose: 4.0 mg/kg/injection, schedule: Q01DX001 (sc), vehicle: saline + alcohol): 3 of 10
T/C [1]: 140 % of control [4 of 5 alive]
survivor count [1]: 0 of 5, 0 of 6, 2 of 6, 3 of 5
survivor count (dose: 4.0 mg/kg/injection, schedule: Q01DX005 (ip), vehicle: water): 0 of 5 and 0 of 6
survivor count (dose: 4.0 mg/kg/injection, schedule: Q01DX009 (ip), vehicle: distilled water + Tween-80): 0 of 6
survivor count (dose: 4.0 mg/kg/injection, schedule: Q01DX009 (ip), vehicle: saline + alcohol): 0 of 5, 0 of 6, 1 of 10, 1 of 6
survivor count (dose: 4.0 mg/kg/injection, schedule: Q01DX009 (ip), vehicle: saline with Tween-80): 2 of 10
survivor count (dose: 4.0 mg/kg/injection, schedule: Q01DX009 (oral), vehicle: saline + alcohol): 3 of 10
T/C (dose: 4.0 mg/kg/injection, schedule: Q04DX003 (ip), vehicle: saline + alcohol): 135 % of control [7 of 10 alive]
T/C (dose: 4.0 mg/kg/injection, schedule: Q08DX002 (ip), vehicle: saline + alcohol): 126 % of control [8 of 10 alive]
survivor count (dose: 8.0 mg/kg/injection, schedule: Q01DX001 (ip), vehicle: saline + alcohol): 0 of 10
survivor count (dose: 8.0 mg/kg/injection, schedule: Q01DX001 (oral), vehicle: saline + alcohol): 4 of 10
survivor count (dose: 8.0 mg/kg/injection, schedule: Q01DX001 (sc), vehicle: saline + alcohol): 0 of 10
survivor count (dose: 8.0 mg/kg/injection, schedule: Q01DX005 (ip), vehicle: saline + alcohol): 0 of 6
survivor count (dose: 8.0 mg/kg/injection, schedule: Q01DX009 (oral), vehicle: saline + alcohol): 0 of 10
survivor count (dose: 8.0 mg/kg/injection, schedule: Q08DX002 (ip), vehicle: saline + alcohol): 0 of 10
survivor count (dose: 16.0 mg/kg/injection, schedule: Q01DX001 (ip), vehicle: saline + alcohol): 0 of 10
survivor count (dose: 16.0 mg/kg/injection, schedule: Q01DX001 (oral), vehicle: saline + alcohol): 0 of 10
survivor count (dose: 16.0 mg/kg/injection, schedule: Q01DX001 (sc), vehicle: saline + alcohol): 0 of 10
survivor count (dose: 16.0 mg/kg/injection, schedule: Q08DX002 (ip), vehicle: saline + alcohol): 0 of 10
survivor count (dose: 32.0 mg/kg/injection, schedule: Q01DX001 (oral), vehicle: saline + alcohol): 0 of 10
survivor count (dose: 64.0 mg/kg/injection, schedule: Q01DX001 (oral), vehicle: saline + alcohol): 0 of 10
T/C (dose: 62.5 micrograms/kg/injection, schedule: Q01DX009 (ip), vehicle: saline + alcohol): 136 % of control
T/C (dose: 125.0 micrograms/kg/injection, schedule: Q01DX009 (ip), vehicle: saline + alcohol): 136 % of control
T/C (dose: 250.0 micrograms/kg/injection, schedule: Q01DX009 (ip), vehicle: saline + alcohol): 130 % of control
T/C (dose: 500.0 micrograms/kg/injection, schedule: Q01DX009 (ip), vehicle: saline + alcohol): 146 % of control
survivor count (dose: 2000.0 micrograms/kg/injection, schedule: Q01DX009 (ip), vehicle: saline + alcohol): 3 of 6
survivor count (dose: 4000.0 micrograms/kg/injection, schedule: Q01DX009 (ip), vehicle: saline + alcohol): 0 of 6
